Measurements published in US9765295B2, “Composition for culturing sanal and sanal culturing method using the same” (Samsung Electronics Co., Ltd., priority 2014, dated 2017).

Assay: Assaying amino acid components in primo fluid, interstitial fluid, lymphatic fluid and blood plasma (HPLC and nano LC)
Design: species or system rat
Details: endogenous level; for Amino acid concentration in Blood Plasma: rat blood plasma; for Amino acid concentration in Interstitial Fluid: rat interstitial fluid; for Amino acid concentration in Lymphatic Fluid: rat lymphatic fluid; for Amino acid concentration in Primo Fluid (n = 5): rat primo fluid

| SMILES | Amino acid concentration in Blood Plasma [mg/L] | Amino acid concentration in Interstitial Fluid [mg/L] | Amino acid concentration in Lymphatic Fluid [mg/L] | Amino acid concentration in Primo Fluid (n = 5) [mg/L] |
| --- | --- | --- | --- | --- |
| N[C@@H](Cc1c[nH]cn1)C(=O)O [L-Histidine] | 10.7 | 3.105 | 15.9813 | 60.5 ± 9.03 |
| N[C@@H](CO)C(=O)O [L-Serine] | 17.9 | 7.833 | 40.577 | 96.1 ± 3.99 |
| NCCCC[C@H](N)C(=O)O [L-Lysine] | 58.9 | 20.231 | 73.6931 | 217.8 ± 26.6 |
| N=C(N)NCCC[C@H](N)C(=O)O [L-Arginine] | 35.7 | 10.885 | 44.426 | 105.6 ± 4.13 |
| NC(=O)C[C@H](N)C(=O)O [L-Asparagine] | 7.8 | 3.849 | 27.2493 | 63.1 ± 1.80 |
| N[C@@H](Cc1c[nH]c2ccccc12)C(=O)O [L-Tryptophane] | 25.1 | 1.659 | 3.1684 | 13.5 ± 2.17 |
| C[C@H](N)C(=O)O [L-Alanine] | 37.4 | 12.076 | 70.3837 | 116.0 ± 5.17 |
| CC(C)[C@H](N)C(=O)O [L-Valine] | 24 | 6.631 | 35.7542 | 105.0 ± 4.48 |
| N[C@@H](CCC(=O)O)C(=O)O [L-Glutamic acid] | 21.6 | 10.382 | 250.8982 | 157.9 ± 9.63 |
| N[C@@H](Cc1ccccc1)C(=O)O [L-Phenylalanine] | 11.6 | 4.38 | 32.7854 | 122.2 ± 8.91 |
| NCC(=O)O [Glycine] | 1.7 | 7.85 | 79.963 | 123.8 ± 2.57 |
| O=C(O)[C@@H]1CCCN1 [L-Proline] | 18.8 | 4.149 | 31.9353 | 53.5 ± 1.51 |
| C[C@@H](O)[C@H](N)C(=O)O [L-Threonine] | 32.5 | 8.195 | 36.339 | 80.4 ± 1.32 |
| N[C@@H](Cc1ccc(O)cc1)C(=O)O [L-Tyrisine] | 14.9 | 6.112 | 284.262 | 104.6 ± 7.05 |
| N[C@@H](CC(=O)O)C(=O)O [L-Aspartic acid] | 3.6 | 1.13 | 171.6287 | 68.3 ± 4.34 |
| O=C(O)[C@@H]1C[C@@H](O)CN1 [L-Hydroxyproline] | 7.2 | 1.021 | 3.273 | 2.17 ± 0.50 |
| CSCC[C@H](N)C(=O)O [L-Methionine] | 9 | 2.809 | 15.4886 | 49.6 ± 1.23 |
| CC[C@H](C)[C@H](N)C(=O)O [L-Isoleucine] | 13.1 | 4.337 | 23.4005 | 80.3 ± 5.14 |
